No constants are given. Whether binding was seen depends on the method and setting. Binding seen in cells or lysates may run through a third protein. Some results given as binding are weak or reduced against the parent protein; the word gives no strength.
Target: nonerythroid αII spectrin (human (endogenous in A549)) (UniProt Q13813)
Experiment: co-IP; lysate (20 mM Tris-HCl, 150 mM NaCl, 0.5% Nonidet P-40, 2 mM EDTA, 0.5 mM DTT, pH 7.5) precipitated with anti-αII Sp antibody or IgG and protein G-agarose; western blot for αII Sp, FANCA and XPF; cells transfected with scrambled ncRNA, miR-128-3p mimic, miR-128-3p inhibitor or SPTAN1 siRNA

B1: FANCA (protein, UniProt O15360 1-1455)
chain: MSDSWVPNSASGQDPGGRRRAWAELLAGRVKREKYNPERAQKLKESAVRLLRSHQDLNALLLEVEGPLCKKLSLSKVIDCDSSEAYANHSSSFIGSALQDQASRLGVPVGILSAGMVASSVGQICTAPAETSHPVLLTVEQRKKLSSLLEFAQYLLAHSMFSRLSFCQELWKIQSSLLLEAVWHLHVQGIVSLQELLESHPDMHAVGSWLFRNLCCLCEQMEASCQHADVARAMLSDFVQMFVLRGFQKNSDLRRTVEPEKMPQVTVDVLQRMLIFALDALAAGVQEESSTHKIVRCWFGVFSGHTLGSVISTDPLKRFFSHTLTQILTHSPVLKASDAVQMQREWSFARTHPLLTSLYRRLFVMLSAEELVGHLQEVLETQEVHWQRVLSFVSALVVCFPEAQQLLEDWVARLMAQAFESCQLDSMVTAFLVVRQAALEGPSAFLSYADWFKASFGSTRGYHGCSKKALVFLFTFLSELVPFESPRYLQVHILHPPLVPGKYRSLLTDYISLAKTRLADLKVSIENMGLYEDLSSAGDITEPHSQALQDVEKAIMVFEHTGNIPVTVMEASIFRRPYYVSHFLPALLTPRVLPKVPDSRVAFIESLKRADKIPPSLYSTYCQACSAAEEKPEDAALGVRAEPNSAEEPLGQLTAALGELRASMTDPSQRDVISAQVAVISERLRAVLGHNEDDSSVEISKIQLSINTPRLEPREHMAVDLLLTSFCQNLMAASSVAPPERQGPWAALFVRTMCGRVLPAVLTRLCQLLRHQGPSLSAPHVLGLAALAVHLGESRSALPEVDVGPPAPGAGLPVPALFDSLLTCRTRDSLFFCLKFCTAAISYSLCKFSSQSRDTLCSCLSPGLIKKFQFLMFRLFSEARQPLSEEDVASLSWRPLHLPSADWQRAALSLWTHRTFREVLKEEDVHLTYQDWLHLELEIQPEADALSDTERQDFHQWAIHEHFLPESSASGGCDGDLQAACTILVNALMDFHQSSRSYDHSENSDLVFGGRTGNEDIISRLQEMVADLELQQDLIVPLGHTPSQEHFLFEIFRRRLQALTSGWSVAASLQRQRELLMYKRILLRLPSSVLCGSSFQAEQPITARCEQFFHLVNSEMRNFCSHGGALTQDITAHFFRGLLNACLRSRDPSLMVDFILAKCQTKCPLILTSALVWWPSLEPVLLCRWRRHCQSPLPRELQKLQEGRQFASDFLSPEAASPAPNPDWLSAAALHFAIQQVREENIRKQLKKLDCEREELLVFLFFFSLMGLLSSHLTSNSTTDLPKAFHVCAAILECLEKRKISWLALFQLTESDLRLGRLLLRVAPDQHTRLLPFAFYSLLSYFHEDAAIREEAFLHVAVDMYLKLVQLFVAGDTSTVSPPAGRSLELKGQGNPVELITKARLFLLQLIPRCPKKSFSHVAELLADRGDCDPEVSAALQSRQQAAPDADLSQEPHLF
binding: binds

B2: XPF (protein, UniProt Q92889 1-916)
chain: MESGQPARRIAMAPLLEYERQLVLELLDTDGLVVCARGLGADRLLYHFLQLHCHPACLVLVLNTQPAEEEYFINQLKIEGVEHLPRRVTNEITSNSRYEVYTQGGVIFATSRILVVDFLTDRIPSDLITGILVYRAHRIIESCQEAFILRLFRQKNKRGFIKAFTDNAVAFDTGFCHVERVMRNLFVRKLYLWPRFHVAVNSFLEQHKPEVVEIHVSMTPTMLAIQTAILDILNACLKELKCHNPSLEVEDLSLENAIGKPFDKTIRHYLDPLWHQLGAKTKSLVQDLKILRTLLQYLSQYDCVTFLNLLESLRATEKAFGQNSGWLFLDSSTSMFINARARVYHLPDAKMSKKEKISEKMEIKEGEETKKELVLESNPKWEALTEVLKEIEAENKESEALGGPGQVLICASDDRTCSQLRDYITLGAEAFLLRLYRKTFEKDSKAEEVWMKFRKEDSSKRIRKSHKRPKDPQNKERASTKERTLKKKKRKLTLTQMVGKPEELEEEGDVEEGYRREISSSPESCPEEIKHEEFDVNLSSDAAFGILKEPLTIIHPLLGCSDPYALTRVLHEVEPRYVVLYDAELTFVRQLEIYRASRPGKPLRVYFLIYGGSTEEQRYLTALRKEKEAFEKLIREKASMVVPEEREGRDETNLDLVRGTASADVSTDTRKAGGQEQNGTQQSIVVDMREFRSELPSLIHRRGIDIEPVTLEVGDYILTPEMCVERKSISDLIGSLNNGRLYSQCISMSRYYKRPVLLIEFDPSKPFSLTSRGALFQEISSNDISSKLTLLTLHFPRLRILWCPSPHATAELFEELKQSKPQPDAATALAITADSETLPESEKYNPGPQDFLLKMPGVNAKNCRSLMHHVKNIAELAALSQDELTSILGNAANAKQLYDFIHTSFAEVVSKGKGKK
binding: binds

Source: PMC5601636
